Results: patent US5169780A, “Enantiomeric enrichment and stereoselective synthesis of chiral amines” (Celgene Corporation, priority 1990, dated 1992)
At least one structure is not confirmed: it was looked up by name or label, or the drawing left a doubt.

Target: T1, omega-amino acid transaminase (Pseudomonas aeruginosa, UniProt Q9I700)
T1 construct: cell extracts containing the omega-amino acid transaminase then are obtained as therein described; host or cells: Pseudomonas aeruginosa ATCC 15692, cell extract
T1 sequence (Q9I700 1-448): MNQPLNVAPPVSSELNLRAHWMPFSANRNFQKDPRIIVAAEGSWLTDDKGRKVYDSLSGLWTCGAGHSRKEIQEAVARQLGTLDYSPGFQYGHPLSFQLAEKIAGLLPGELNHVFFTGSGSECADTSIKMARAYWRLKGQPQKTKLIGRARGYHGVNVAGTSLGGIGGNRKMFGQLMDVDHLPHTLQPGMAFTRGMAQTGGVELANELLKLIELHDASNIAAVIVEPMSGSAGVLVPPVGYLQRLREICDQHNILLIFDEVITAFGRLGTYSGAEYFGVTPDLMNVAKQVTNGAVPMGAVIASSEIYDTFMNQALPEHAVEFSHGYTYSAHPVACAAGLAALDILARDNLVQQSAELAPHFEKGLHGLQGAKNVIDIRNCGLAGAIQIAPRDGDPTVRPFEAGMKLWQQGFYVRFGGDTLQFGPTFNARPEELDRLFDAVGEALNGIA
Experiment: standardized omega-amino acid transaminase activity assay, P. aeruginosa enzyme
Type: biochemical
Details: pH 9, 50 mM Tris/HCl, 30 mM R,S-1-phenyl-3-aminobutane, 100 mM sodium pyruvate as amino acceptor

CC(=O)C(=O)O [pyruvate]
Relative Rate of Conversion P. aeruginosa: 100
